{"sequences": {"note": "By UniProt entry, the sequences of proteins in these tests, tags left out.", "UniProt Q03017": "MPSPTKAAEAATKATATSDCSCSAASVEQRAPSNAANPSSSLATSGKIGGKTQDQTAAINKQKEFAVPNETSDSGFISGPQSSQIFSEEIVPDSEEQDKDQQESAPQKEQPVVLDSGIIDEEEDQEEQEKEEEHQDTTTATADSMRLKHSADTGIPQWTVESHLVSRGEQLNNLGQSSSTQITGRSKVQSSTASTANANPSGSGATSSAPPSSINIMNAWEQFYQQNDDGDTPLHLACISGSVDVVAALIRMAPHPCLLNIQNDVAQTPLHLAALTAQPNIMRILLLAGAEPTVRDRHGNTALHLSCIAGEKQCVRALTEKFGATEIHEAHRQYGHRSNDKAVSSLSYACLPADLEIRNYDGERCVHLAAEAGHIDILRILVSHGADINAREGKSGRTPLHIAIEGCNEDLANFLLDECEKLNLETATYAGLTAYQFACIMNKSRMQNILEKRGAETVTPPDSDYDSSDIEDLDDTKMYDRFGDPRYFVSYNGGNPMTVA"}, "source": "paper doi:10.1101/358176", "target": "T1, GFP-tagged dl (dorsal) (Drosophila melanogaster) (UniProt P15330)", "T1 sequence": "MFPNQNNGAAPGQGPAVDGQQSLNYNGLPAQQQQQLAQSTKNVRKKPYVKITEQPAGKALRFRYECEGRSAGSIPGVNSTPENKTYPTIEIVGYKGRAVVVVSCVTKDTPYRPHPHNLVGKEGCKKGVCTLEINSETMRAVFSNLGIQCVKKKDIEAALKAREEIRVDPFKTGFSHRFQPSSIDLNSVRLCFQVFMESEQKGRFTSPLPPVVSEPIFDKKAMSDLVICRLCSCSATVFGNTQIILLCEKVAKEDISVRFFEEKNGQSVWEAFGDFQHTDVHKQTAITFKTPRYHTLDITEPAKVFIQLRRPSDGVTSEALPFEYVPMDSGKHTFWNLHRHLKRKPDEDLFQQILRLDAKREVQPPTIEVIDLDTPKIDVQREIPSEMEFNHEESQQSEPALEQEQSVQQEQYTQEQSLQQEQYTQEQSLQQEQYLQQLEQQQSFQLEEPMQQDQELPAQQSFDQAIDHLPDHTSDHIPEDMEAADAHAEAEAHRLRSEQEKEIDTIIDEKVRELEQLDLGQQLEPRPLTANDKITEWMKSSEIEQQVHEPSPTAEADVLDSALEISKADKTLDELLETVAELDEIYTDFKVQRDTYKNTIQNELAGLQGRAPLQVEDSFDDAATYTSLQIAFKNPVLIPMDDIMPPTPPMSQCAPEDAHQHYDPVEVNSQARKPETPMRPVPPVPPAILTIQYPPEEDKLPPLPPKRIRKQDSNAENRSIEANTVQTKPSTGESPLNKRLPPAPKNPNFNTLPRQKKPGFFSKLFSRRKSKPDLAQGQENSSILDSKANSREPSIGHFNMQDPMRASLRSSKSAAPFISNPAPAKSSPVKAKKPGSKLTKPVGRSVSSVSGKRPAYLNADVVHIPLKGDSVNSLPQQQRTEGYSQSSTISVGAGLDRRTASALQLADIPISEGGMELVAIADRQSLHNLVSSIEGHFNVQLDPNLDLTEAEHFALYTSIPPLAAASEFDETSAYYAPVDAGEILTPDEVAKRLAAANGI", "assay": "co-IP", "note": "No constants are given. Whether binding was seen depends on the method and setting. Binding seen in cells or lysates may run through a third protein. Some entries that bind do so weakly or less than the wild type. Tags and fused reporters may be left off the sequences shown."}
{"substance": "V5-tagged cact (cactus) (from UniProt Q03017 1-500)", "values": [{"measurement": "binding", "result": "binds"}]}
